These are yes or no findings as the source states them, for the method shown. Some binding calls cover weakened binding; strength is not graded here. Tags and fused reporters may be left off the sequences shown.
Assays:
[1] = target: T1, BMP-2 (R&D Systems) (UniProt P12643); assay: enzyme immunoassay, BMP-2 coated at 100 nM, gremlin-1-Fc 10 nM, HRP anti-IgG-Fc
T1 sequence (looked up): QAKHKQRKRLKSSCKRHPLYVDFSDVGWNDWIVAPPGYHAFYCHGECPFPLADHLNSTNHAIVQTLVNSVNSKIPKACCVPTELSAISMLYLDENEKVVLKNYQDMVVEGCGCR

[2] = target: T2, BMP-4 (R&D Systems) (UniProt P12644); assay: enzyme immunoassay, BMP-4 coated at 100 nM, gremlin-1-Fc 10 nM, HRP anti-IgG-Fc
T2 sequence (looked up): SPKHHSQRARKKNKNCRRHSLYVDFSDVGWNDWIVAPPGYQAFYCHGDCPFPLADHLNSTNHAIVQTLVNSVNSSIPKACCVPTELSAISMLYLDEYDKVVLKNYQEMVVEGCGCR

B1: gremlin-1-Fc fusion protein (human gremlin-1 and human IgG1-Fc) (Fc fusion, UniProt O60565 25-184, looked up, not shown: a dimerising Fc or GST)
chain: KKKGSQGAIPPPDKAQHNDSEQTQSPQQPGSRNRGRGQGRGTAMPGEEVLESSQEALHVTERKYLKRDWCKTQPLKQTIHEEGCNSRTIINRFCYGQCNSFYIPRHIRKEEGSFQSCSFCKPKKFTTMMVTLNCPELQPPTKKKRVTRVKQCRCISIDLD
B1 was tested, and the binding [1] was “binds” and the binding [2] was “binds”.

From patent US20150158938A1 (SNU R AND DB FOUNDATION, published 2015)
